PubChem BioAssay AID1347075 (National Center for Advancing Translational Sciences (NCATS), 2019)
Values joined by “and” are separate entries in the source; they are usually repeats but may differ in a detail not shown here. Equal values may be shown once. The campaign covered roughly 400,000 compounds. About 5,500 (1.4%) were called active. Inconclusive results, whose numbers are uncertain, are shown with a selection of clear calls. Calls follow the shape of the dose curve; as a rule, active = well fitted cell-killing curve with a large enough effect; inconclusive = small, poorly fitted or top-dose-only effect, or effect the other way; inactive = flat fitted curve, though single readings scatter. Where the call is inconclusive, the potency comes from a doubtful curve fit.

Assay: qHTS assay for MDR1-selective chemotherapeutics: Primary screen using the parental adenocarcinoma cell KB-3-1; also: nearly all actives have a fitted effect of over 60% in size
Conditions: KB-3-1 viability, CellTiter-Glo ATP luminescence, 72 h; activity change, negative = cytotoxic: at 46.1 µM (top of the series)
Outline: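 Cells are dispensed, compounds pinned in, plates held at 37 °C for 72 h, then CellTiter-Glo is added and luminescence read after 10 minutes. Cell line: parental KB-3-1 in phenol-red-free DMEM, 10% FBS.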
% is scaled to controls: 0 for no effect and ±100 for the full control effect; potency is read from the fitted curve at half-maximal effect.

Structure (SMILES)	Potency	activity change, negative = cytotoxic
COc1cccc(NS(=O)(=O)c2cc(-c3cnc(C4CC4)o3)ccc2C)c1	active: 4.11 µM	–
Cc1ccc(NC(=O)CSc2nc(-c3ccco3)nc3cc(=O)[nH]n23)c(Cl)c1	–	inconclusive: 1.99%
CCN(Cc1ccccc1)C(c1ccc(C(F)(F)F)cc1)c1nnnn1C(C)(C)C (configuration not stated)	active: 16.4 µM	–
CC(C)(C)CN1CCNC[C@H]1Cc1ccc(O)cc1	inactive	–
CCC/C(O)=C1\C(=O)CC(C)(C)CC1=NCc1ccccc1	–	inconclusive: -1.34%
CCCCCc1c(C)nc(Nc2ccccc2)[nH]c1=O	inconclusive: 20.6 µM [cytotoxic, single point]	–
COc1cc(NC(=O)c2ccc(=O)[nH]n2)cc(OC)c1OC	inactive	–
COc1ccccc1N1C(=O)c2cccnc2C1=O	inactive	–
N#Cc1cc(Cl)c(NCC2CCCO2)cc1C#N (configuration not stated)	inconclusive: 29.1 µM [cytotoxic, single point]	–
COC(=O)C1=C(C)N(Cc2ccccc2)C(=NCc2cccc(C(F)(F)F)c2)N[C@H]1c1cccc(C(F)(F)F)c1	inconclusive: 29.1 µM [cytotoxic, single point]	–
Cc1cc(Br)cn2c(Cc3ccsc3)c(-c3ccc(Cl)cc3)nc12	inconclusive: 25.9 µM [cytotoxic, single point]	–
O=C(Cc1ccc(Cl)cc1Cl)Nc1ccncc1	inconclusive: 3.26 µM [cytotoxic, full curve, poor fit]	–
N#CCCN(C(=O)Nc1ccc(Cl)c(Cl)c1)C1CCCCC1	inconclusive: 29.1 µM [cytotoxic, single point]	–
O=C(NNC(=S)NC(=O)c1ccco1)c1ccc(NC(=O)c2ccccc2)cc1	inconclusive: 23.1 µM [cytotoxic, single point]	–
Cc1cnc(-c2nnc(N(C)C(=O)c3cccnc3)s2)cn1	inconclusive: 20.6 µM [rising, partial curve, poor fit]	–
c1ccc(-c2nnc3sc(CN4CCc5ccccc54)cn23)cc1	active: 20.6 µM	–
COc1ccc(OC)c(C2CC(=O)Nc3ccc4ccccc4c32)c1 (configuration not stated)	inactive	–
CC(=O)c1c(O)cc(O)cc1O	inactive	–
O=C1CC(c2cc(-c3ccccc3)no2)C1	inconclusive: 32.6 µM [rising, single point]	–
O=C(NCCc1ccccc1)c1ccc2nc(-c3ccco3)c(-c3ccco3)nc2c1	inconclusive: 29.1 µM [cytotoxic, single point]	–
CC(NC(=O)c1c(O)nc2ccccn2c1=O)c1ccccc1 (configuration not stated)	inconclusive: 14.6 µM [cytotoxic, partial curve]	–
O=C(N/N=C/c1cc(O)ccc1Br)c1cccnc1	active: 20.6 µM	–
O=C(CCCC(=O)N(CC(=O)NC1CCCCC1)c1ccccc1F)Nc1ccccn1	inconclusive: 0.0326 µM [rising, full curve, poor fit]	–
N/C(=N/OC(=O)c1ccccc1Cl)c1nonc1N	inconclusive: 32.6 µM [cytotoxic, single point]	–

Structure (SMILES)	Potency	activity change, negative = cytotoxic
O=C(C1CCN(c2nnc(-n3cccc3)s2)CC1)N1CCOCC1	inconclusive: 25.9 µM [cytotoxic, partial curve, poor fit]	–
O=C(NC(=S)Nc1ccc(Cl)cc1)c1ccccc1	inactive	–
CCOC(=O)[C@]12CCC=C1N(Cc1ccc3c(c1)OCO3)C(=O)[C@H](CC(=O)NCc1cccc(C(F)(F)F)c1)C2	inconclusive: 29.1 µM [cytotoxic, single point]	–
CCOC(=O)Cc1csc(N/N=C/c2ccc(Cl)cc2)n1	inactive	–
CCCn1c(SCC(=O)Nc2ccccc2OC)nnc1-c1ccco1	inconclusive: 7.31 µM [cytotoxic, partial curve, poor fit]	–
COc1cc(/C=N/NC(=O)c2ccc(N3CCCC3=O)cc2)ccc1O	inconclusive: 9.2 µM [cytotoxic, single point]	–
N#C/C(=C\c1ccc(O)cc1)C(=O)N1CCCC1	inactive	–
O=S(Cc1cc(Sc2ccccc2)nc(-c2ccccc2)n1)c1ccccc1 (configuration not stated)	inconclusive: 29.1 µM [cytotoxic, single point]	–
COc1ccc2cc(/C=N/NC(=O)c3ccc(CN(c4ccc(C)c(C)c4)S(C)(=O)=O)cc3)c(Cl)nc2c1	inconclusive: 18.4 µM [cytotoxic, single point]	–
O=c1c(Cc2ccc(F)cc2)c(O)ccn1Cc1cccc(Cl)c1	inconclusive: 29.1 µM [cytotoxic, single point]	–
COc1cc(C(=O)OC(C)C(=O)NCC2CCCCC2)cc(NC(=O)c2ccco2)c1OC (configuration not stated)	inconclusive: 29.1 µM [cytotoxic, single point]	–
CN(C)S(=O)(=O)c1ccc(-c2csc(N/N=C/c3ccc(O)cc3)n2)cc1	active: 20.6 µM	–
CC(CNS(=O)(=O)c1ccccc1)(c1ccccc1)N1CCCCC1 (configuration not stated)	inactive	–
COCCCNC(=S)Nc1cc2oc3ccccc3c2cc1OC	inconclusive: 29.1 µM [cytotoxic, single point]	–
Cc1ccc(O)c(-c2cc(C(=O)Nc3ccc(S(=O)(=O)N4CC(C)OC(C)C4)cc3)[nH]n2)c1 (configuration not stated)	inconclusive: 29.1 µM [cytotoxic, single point]	–
CSc1ccc(/C=C/C(=O)OCC(=O)N2CCN(S(=O)(=O)c3ccc(C)cc3C)CC2)cc1	inactive	–
COc1cccc(NC(=O)N2CCC(CN3CCOCC3)CC2)c1	inactive	–
CC1=C(C(N)=O)C(c2ccccc2)n2nc(-c3cccc(C)c3)nc2N1 (configuration not stated)	–	inconclusive: -5.72%
Cc1cccc(NC(=O)CSCC(=O)N2CCCc3ccccc32)c1	inactive	–
COc1ccc(CN2CCN(C(=O)c3ccc(S(=O)(=O)N4CCCCCC4)cc3)CC2)cc1F	active: 23.1 µM	–
CCN(CC)c1ccc(NC(=O)c2ccc(=O)[nH]c2)cc1S(=O)(=O)Nc1ccc(OC)cc1	inconclusive: 29.1 µM [cytotoxic, single point]	–
O=C(c1ccc(CN2CCc3ccccc3C2)cc1)N1CCN(c2ccc(F)cc2)CC1	inconclusive: 29.1 µM [cytotoxic, single point]	–
Cc1ccc(NC(=O)CN2C(=O)C(C)(C)c3cc(S(=O)(=O)N4CCCCC4)ccc32)c(Br)c1	inconclusive: 10.3 µM [cytotoxic, partial curve, poor fit]	–
CCOC(=O)c1c(C)[nH]c(C)c1S(=O)(=O)N1CCCC(C(=O)N2CCN(c3cccc(Cl)c3)CC2)C1 (configuration not stated)	inconclusive: 29.1 µM [cytotoxic, single point]	–

Structure (SMILES)	Potency	activity change, negative = cytotoxic
COc1ccc(-c2cc(C3CCN(c4cc(Cl)nc(N)n4)CC3)[nH]n2)cc1	inconclusive: 25.9 µM [cytotoxic, single point]	–
CCN1CCc2c(OCC(=O)N3N=C(c4cccs4)CC3c3ccc(F)cc3)cccc2C1=O (configuration not stated)	inconclusive: 20.6 µM [cytotoxic, single point]	–
O=c1cc(CN2CCN(C/C=C/c3ccccc3)CC2)c2cc(O)c(-c3ccccc3)cc2o1	inconclusive: 29.1 µM [cytotoxic, single point]	–
Cn1c(O)c(/C=N/NC(=O)c2cc3ccccc3cc2O)c2ccccc21	inconclusive: 29.1 µM [cytotoxic, single point]	–
COc1ccc(OCC(=O)N/N=C\c2ccco2)cc1	inactive	–
COc1ccccc1-c1nn(CCC(=O)Nc2ccccc2)c2nc(C)cc(C)c12	inactive	–
Cc1cccc(C)c1NC(=O)CCCSc1nnc(-c2ccc(Cl)cc2)n1-c1ccccc1	active: 4.11 µM	–
CCN(CC)CCNC(=O)c1cc2c(-c3cccc(OC)c3)nn(C)c2s1	inconclusive: 23.1 µM [cytotoxic, single point]	–
O=C(C1=NNCC1c1ccccc1)C1OC1c1ccccc1 (configuration not stated)	inactive	–
CC1CCCCN1C(=O)NC1CC(=O)N(c2ccc3c(c2)OCCO3)C1 (configuration not stated)	inactive	–
COc1cc(/C=N/NC(=O)Cc2csc(N3CCOCC3)n2)cc(OC)c1O	inactive	–
CCOc1ccc(-c2cc(C(=O)N3CCN(c4ccccn4)CC3)c3ccccc3n2)cc1	inconclusive: 5.8 µM [cytotoxic, partial curve, poor fit] and active: 9.2 µM and active: 4.11 µM	–
Cc1nn(C(C)C(=O)NCc2ccco2)c(=O)c2nn(-c3ccccc3)c(C)c12 (configuration not stated)	inactive	–
O=C(O)C(=Cc1ccccc1[N+](=O)[O-])c1ccc2c(c1)OCO2	inactive	–
Cc1ccc2[nH]cc(C(c3ccccc3)c3ccc(Cl)s3)c2c1 (configuration not stated)	inconclusive: 14.6 µM [cytotoxic, partial curve]	–
CC1=CC(C)(C)NC(=S)N1c1ccc([N+](=O)[O-])cc1	inactive	–
O=C(NNC(=S)Nc1cccc(Cl)c1)c1ccccc1OC(F)F	inconclusive: 23.1 µM [cytotoxic, partial curve]	–
CC(C)CCNC(=O)Cn1c2c(c(-c3ccccc3Cl)cc1=O)CCC2	inactive	–
COc1ccc(-c2sc3ccc(OC)cc3c2C#Cc2cncn2C)cc1	inconclusive: 29.1 µM [cytotoxic, single point]	–
COc1ccccc1N=Cc1nc(-c2ccccc2)oc1OC(C)=O	inactive	–
O=C1NC(Cc2ccccc2)c2nc3cc(F)c(F)cc3c(=O)n2-c2cc3ccccc3cc21 (configuration not stated)	active: 14.6 µM	–
COCCNC(=O)C1CCCN(C(=O)c2cc(C)n(C(C)(C)C)n2)CC1 (configuration not stated)	inactive	–
CN1C(=O)c2ccccc2Sc2ccc(NC(=O)N3CCN(c4ccc(F)cc4)CC3)cc21	inconclusive: 29.1 µM [cytotoxic, single point]	–
COc1ccc(NC(=O)C(NS(=O)(=O)c2cccc3nsnc23)C(C)C)cc1OC (configuration not stated)	inactive	–

Structural class: the entries above with a tert-butyl group
Structure (SMILES)	Potency	activity change, negative = cytotoxic
CCN(Cc1ccccc1)C(c1ccc(C(F)(F)F)cc1)c1nnnn1C(C)(C)C (configuration not stated)	active: 16.4 µM	–
CC(C)(C)CN1CCNC[C@H]1Cc1ccc(O)cc1	inactive	–
COCCNC(=O)C1CCCN(C(=O)c2cc(C)n(C(C)(C)C)n2)CC1 (configuration not stated)	inactive	–
